PubChem BioAssay AID504786, Drosophila RNAi Screening Center, 2011

Purpose: 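Positive regulators of HIF-driven reporter output in Drosophila cells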 (primary screen)
Cells: Drosophila S2 cells with a stable HIF luciferase reporter
Knock-down reagent: long dsRNA against Drosophila genes, about 0.2 µg dsRNA per well of a 384-well plate
Duration: three days of knock-down, then 20 h of DFO before reading
Challenge: desferrioxamine (DFO) at 100 µM, an iron chelator that mimics hypoxia, for 20 h
Detection: 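Firefly luciferase driven by the mouse ldh-a hypoxia-response element, measured after 20 h of 100 µM DFO; z-scores per plate, higher means more signal lost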
Scale: z-score: higher = stronger loss of HIF reporter signal
The screen tested about 21,000 reagents; below is a random part of those with a known target gene and a result. 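Primary screen; positive scores mean lost reporter signal, so the sign may be inverted from the usual convention.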 Further read-outs or replicates are left out here. No sequences are given here.

kmg [DRSC02829]
- z-score, replicate 1: -0.4

dome [DRSC19583]
- z-score, replicate 1: 0.8

CG14505 [DRSC06476]
- z-score, replicate 1: -0.3

CG7806 [DRSC03071]
- z-score, replicate 1: -0.3

wnd [DRSC09626]
- z-score, replicate 1: -0.2

wnd [DRSC11046]
- z-score, replicate 1: -0.2

cmb [DRSC09790]
- z-score, replicate 1: -0.4

Capa [DRSC15058]
- z-score, replicate 1: -0.3

CG30484 [DRSC05457]
- z-score, replicate 1: -0.2

SmydA-2 [DRSC10296]
- z-score, replicate 1: -0.2

magu [DRSC06832]
- z-score, replicate 1: -0.3

Cyp4ac2 [DRSC03303]
- z-score, replicate 1: -0.1

CG12783 [DRSC14538]
- z-score, replicate 1: -0.2

Slc25A46b [DRSC02888]
- z-score, replicate 1: -0.3

CG15254 [DRSC01870]
- z-score, replicate 1: -0.4

TpnC25D [DRSC02965]
- z-score, replicate 1: -0.2

WASp [DRSC15032]
- z-score, replicate 1: 0

CG14659 [DRSC12245]
- z-score, replicate 1: -0.2

CG32073 [DRSC09087]
- z-score, replicate 1: 0

CG32073 [DRSC09894]
- z-score, replicate 1: -0.2

CG30427 [DRSC04014]
- z-score, replicate 1: -0.3

CG30427 [DRSC04311]
- z-score, replicate 1: -0.3

CG30427 [DRSC04323]
- z-score, replicate 1: -0.3

CG7059 [DRSC16187]
- z-score, replicate 1: -0.9

Syt14 [DRSC12331]
- z-score, replicate 1: -0.3

agt [DRSC12611]
- z-score, replicate 1: -0.3

Ance-5 [DRSC04055]
- z-score, replicate 1: -0.4

Ref1 [DRSC12497]
- z-score, replicate 1: -0.4

CG13833 [DRSC14683]
- z-score, replicate 1: -0.4

GABA-B-R3 [DRSC00561]
- z-score, replicate 1: -0.2

CG44153 [DRSC02228]
- z-score, replicate 1: 0

CG44153 [DRSC02229]
- z-score, replicate 1: 0.2

CG44153 [DRSC02902]
- z-score, replicate 1: -0.2

CG44153 [DRSC02903]
- z-score, replicate 1: -0.2

CG32246 [DRSC08115]
- z-score, replicate 1: 0.4

Hug [DRSC16969]
- z-score, replicate 1: -0.4

CG10338 [DRSC02039]
- z-score, replicate 1: -0.3

ninaB [DRSC16807]
- z-score, replicate 1: -0.3

CG5390 [DRSC02855]
- z-score, replicate 1: 0

Srrm234 [DRSC07955]
- z-score, replicate 1: 0.1

Srrm234 [DRSC08606]
- z-score, replicate 1: -0.3

Records above whose gene name begins with A or a (2):
agt [DRSC12611]
- z-score, replicate 1: -0.3

Ance-5 [DRSC04055]
- z-score, replicate 1: -0.4
